Source: patent EP1213583A1, “General method for the covalent immobilisation of indicators in, or onto a support useful for the fabrication of optical sensors” (Innosense S.r.l., priority 2000, dated 2002)
For at least one compound, name, drawing or mass did not settle the structure.

Assay: Stability of the immobilised indicator on prolonged exposure to heparinised blood (reflectance spectra)
Type: physicochemical
Details: immobilised on Biodyne B membrane; prolonged exposure (24 hours) to heparinised blood

O=S1(=O)OC(c2ccc(O)cc2)(c2ccc(O)cc2)c2ccccc21 [phenol red]
spectral intensity of the bound indicator: did not change
